Test results taken from PubChem BioAssay AID2685 (National Center for Advancing Translational Sciences (NCATS), 2010).
The list shows a part of the results. These are further read-outs of the screen, such as a control signal, another cell line or another target. No call is given for them. Most of these compounds were active or inconclusive in the main read-out, so they are no random draw. Words in brackets tell the shape of the fitted curve; partial curves, single points and poor fits give uncertain potencies.

Test: qHTS Assay for Lipid Storage Modulators in Drosophila S3 Cells;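 on cell number change: cells counted by Cell Tracker Red CMTPX staining in the red channel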
Conditions: BODIPY lipid droplet fluorescence, 18-24 h; for cell number change: measured here: cell count max response, cells fed with added oleic acid
How it was run: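 Drosophila S3 cells got compounds at several concentrations plus oleic acid (400 uM solution). Laser-scanning cytometry with 488 nm excitation read lipid droplets at 500-530 nm and cells at 575-640 nm. Percent activity was relative to 20 uM Triacsin C.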

[1] = measured here: lipid fluorescence (Fed channel) AC50, cells fed with added oleic acid
[2] = measured here: cell number channel AC50, cells fed with added oleic acid

SMILES | cell number change | AC50 [1] | AC50 [2]
CC1(c2ccc(Cl)cc2Cl)NC(=O)N(CC(=O)NC2CCCCC2)C1=O (stereo not given) | 2.26% | 0.13 µM [rising, full curve, poor fit] | –
Fc1ccc(COc2ccc(Br)cc2CNCC2CCCO2)cc1 (stereo not given) | 32.4% | 29.1 µM [rising, single point] | 20.6 µM [rising, single point]
COc1cc(Cl)c(NC2=CC(=O)C(=O)c3ccccc32)c(OC)c1 | – | – | 0.164 µM [falling, full curve]
COc1ccc(N(CC(=O)NCc2ccco2)S(C)(=O)=O)cc1 | – | – | 0.58 µM [rising, single point]
COc1cccc(/C=N/NC(=O)CNC(=O)c2ccc(S(=O)(=O)N3CCOCC3)cc2)c1OC | 5.79% | 0.146 µM [rising, full curve, poor fit] | 0.731 µM [falling, single point]
c1ccc(-c2nnc(CN3CCN(C(c4ccccc4)c4ccccc4)CC3)o2)cc1 | -8.16% | – | –
COc1ccc(S(=O)(=O)NNC(=O)Nc2ccc(C)cc2C)c(OC)c1 | -8.91% | 0.58 µM [rising, single point] | –
CNc1c(N)n(Cc2ccccc2)c(=O)[nH]c1=O | 43% | – | –
CC1(C)CC(=O)C2=C(C1)NC1=C(C(=O)c3ccccc31)C2c1ccc(O)cc1 (stereo not given) | 3.85% | 0.184 µM [rising, full curve, poor fit] | –
COc1cc(C(=O)Nc2ccc(C(=O)O)cc2)ccc1OC(C)=O | – | 0.731 µM [falling, partial curve, poor fit] | 0.92 µM [falling, partial curve, poor fit]
N#Cc1c(NC(=O)C2CCCO2)sc2c1CCCCC2 (stereo not given) | 45.5% | – | 32.6 µM [rising, partial curve, poor fit]
COc1ccccc1N1C(=O)CC(Sc2n[nH]c(-c3cccc(C)c3)n2)C1=O (stereo not given) | 28.7% | 20.6 µM [rising, partial curve, poor fit] | –
CCC(NS(=O)(=O)c1ccc(C)cc1)C(=O)N1CCC2(O)CCCCC2C1 (stereo not given) | 15.1% | 2.06 µM [falling, partial curve] | –
Cc1cccc(CSc2nnc3c(n2)[nH]c2ccccc23)c1 | -37.2% | 32.6 µM [falling, single point] | 29.1 µM [falling, single point]
CC(NC(=O)CSc1ncnc2nc[nH]c12)c1ccccc1 (stereo not given) | -47% | – | 0.651 µM [falling, full curve, poor fit]
Cc1cccc(C)c1NC(=O)c1c[nH]c2ccccc12 | 12.8% | 14.6 µM [rising, partial curve, poor fit] | –
CC(=O)Nc1ccc(NS(=O)(=O)c2ccc(Cl)s2)cc1 | 146% | 0.58 µM [rising, single point] | –
C=CCn1c(=O)n2ncnc2c2c3c(sc21)CCCC3 | – | 9.2 µM [rising, partial curve] | 0.651 µM [rising, full curve]
Cc1ccc(N(CC(=O)Nc2cc(C)cc(C)c2)S(=O)(=O)c2c(C)noc2C)cc1 | 38.8% | 6.51 µM [falling, single point] | 29.1 µM [rising, single point]

SMILES | cell number change | AC50 [1] | AC50 [2]
CC(=O)c1cccc(NC(=O)CCS(=O)(=O)c2cccc3nsnc23)c1 | 13.7% | 0.116 µM [falling, full curve, poor fit] | –
O=C(NCCOc1ccccc1)C1CCC(=O)N(CCCN2CCCC2=O)C1 (stereo not given) | 0.578% | – | –
CCOC(=O)Nc1c(C(=O)OC)[nH]c2cccc(OC)c12 | – | 0.731 µM [falling, single point] | 0.164 µM [falling, full curve, poor fit]
CC(C)CCNC(=O)COC(=O)/C=C/c1ccc2ccccc2n1 | 30.3% | 0.58 µM [falling, full curve] | –
O=C(CSc1nc(-c2ccccc2)nc2c1Cc1ccccc1O2)Nc1ccc(C(=O)O)cc1 | -22.2% | – | 0.82 µM [rising, single point]
CCn1cc(SCC(N)=O)c2ccccc21 | -71.6% | 29.1 µM [falling, single point] | 29.1 µM [falling, single point]
N#Cc1ccccc1CSc1ncccc1C(=O)O | 6.85% | – | –
C=C(C)c1cccc(C(C)(C)NC(=O)Nc2ccc(OC)cc2)c1 | 30.5% | 0.259 µM [falling, full curve, poor fit] | –
CC(=O)c1cccc(NC(=O)c2ccoc2C)c1 | 15.5% | – | –
Cc1ccc(Nc2nc3ccccc3[nH]2)nc1 | -36.5% | 16.4 µM [falling, partial curve] | 16.4 µM [falling, single point]
O=C(Nc1ccc(S(=O)(=O)N2CCc3ccccc3C2)cc1)C1CCCO1 (stereo not given) | 7.66% | 23.1 µM [falling, single point] | 4.61 µM [falling, partial curve, poor fit]
Cc1cc(/C=N/NC(=O)COc2cccc3cccnc23)c(C)n1-c1ccc(O)cc1 | 22% | 6.51 µM [rising, partial curve, poor fit] | –
CC1=C(C(=O)N2CCCC(CCC(=O)NCc3ccccc3F)C2)OCCO1 (stereo not given) | -18.1% | 0.651 µM [falling, single point] | 2.06 µM [falling, partial curve]
CCOC(=O)N1CCN(C(=O)CNC(=O)c2nn(-c3ccc(OC)c(Cl)c3)c(=O)c3ccccc23)CC1 | -42.1% | – | 0.731 µM [falling, partial curve]
COc1ccccc1OCC(=O)Nc1ccc(S(=O)(=O)Nc2onc(C)c2C)cc1 | 10.4% | 6.51 µM [rising, single point] | –
O=C(NCc1ccco1)C(Cc1ccccc1)NS(=O)(=O)c1cccc2nsnc12 (stereo not given) | 20.9% | – | –
Nc1nc(N)c2sc3nc4c(cc3c2n1)CCC4 | 12.3% | 29.1 µM [rising, single point] | –
CCOC(=O)Cc1sc(N)nc1C | -0.3% | 29.1 µM [rising, single point] | –
COc1ccc(C2SCC(C(=O)O)N2C(C)=O)cc1 (stereo not given) | -67.3% | 25.9 µM [falling, partial curve] | 16.4 µM [falling, partial curve]

Pulled by structure from the entries so far:
SMILES | cell number change | AC50 [1] | AC50 [2]
CC1(C)CC(=O)C2=C(C1)NC1=C(C(=O)c3ccccc31)C2c1ccc(O)cc1 (stereo not given) | 3.85% | 0.184 µM [rising, full curve, poor fit] | –
Cc1cc(/C=N/NC(=O)COc2cccc3cccnc23)c(C)n1-c1ccc(O)cc1 | 22% | 6.51 µM [rising, partial curve, poor fit] | –
COc1ccccc1N1C(=O)CC(Sc2n[nH]c(-c3cccc(C)c3)n2)C1=O (stereo not given) | 28.7% | 20.6 µM [rising, partial curve, poor fit] | –

Remaining list, next part

SMILES | cell number change | AC50 [1] | AC50 [2]
O=C(CC1C(=O)NCCN1Cc1ccccc1C(F)(F)F)NC1CCC1 (stereo not given) | 41.7% | 4.11 µM [rising, partial curve, poor fit] | 14.6 µM [rising, partial curve, poor fit]
CS(=O)(=O)N1CCC(C(=O)NCCN2CCN(Cc3ccccc3)CC2)CC1 | -0.51% | – | –
Cc1cc(C)n2nc(C(=O)Nc3ccc4c(c3)OCCO4)nc2n1 | 48.5% | 29.1 µM [rising, single point] | 18.4 µM [rising, single point]
CCC(C)(C(=O)NC1CCCC1)N(C(=O)c1ccccn1)c1ccc(C)cc1 (stereo not given) | -1.03% | 4.11 µM [falling, single point] | 1.64 µM [falling, partial curve, poor fit]
CCOC(=O)c1nnn(-c2nc(OC)nc(N3CCCC3)n2)c1-c1ccccc1 | 17.2% | 1.84 µM [rising, full curve] | 0.82 µM [rising, full curve, poor fit]
S=C(NCCCN1CCOCC1)N1CCN(c2cccc(Cl)c2)CC1 | 5.26% | – | –
CCOC(=O)c1c(C)n(C)c2ccc(OCC(O)CN3CCN(C)CC3)cc12 (stereo not given) | – | 6.51 µM [rising, single point] | –
Cc1ccc(C2CC(C(F)(F)F)n3nc(C(=O)NCc4c(C)nn(C)c4C)c(Cl)c3N2)cc1 (stereo not given) | -20.8% | – | –
O=C1OC(Nc2ccc(F)cc2F)c2ccccc21 (stereo not given) | -11.9% | – | –
Nc1cccc(-c2cn3cc(C(F)(F)F)cc(Cl)c3n2)c1 | – | 2.91 µM [rising, single point] | 1.03 µM [rising, full curve]
Nc1c(C(=O)Nc2ccc3c(c2)OCCO3)nnn1Cc1ccc(Br)cc1 | 100% | – | 5.8 µM [rising, partial curve]
O=C(COC(=O)c1ccc(Oc2ccccc2)cc1)Nc1nnc(-c2ccccc2)o1 | -5.69% | 16.4 µM [rising, partial curve] | –
O=c1ccc(S(=O)(=O)N2CCCC2)cn1Cc1ccc(Cl)cc1Cl | 3.06% | 2.91 µM [falling, single point] | –
COc1cccc(N(C(=O)c2ccco2)C(C(=O)NC2CCCC2)c2ccc(N3CCOCC3)cc2)c1 (stereo not given) | -5.13% | 5.17 µM [rising, single point] | –
CCn1c(=O)c(C(=O)CN2CCOCC2)c(N)n(Cc2ccccc2)c1=O | 7.33% | 0.731 µM [rising, single point] | –
Cc1ccc(Cl)cc1N(C)C(=O)Cn1ncc2c([nH]c3ccccc32)c1=O | – | 29.1 µM [falling, single point] | –
c1ccc(-n2ncc3c(N4CCN(c5ccccn5)CC4)nc(N4CCCCC4)nc32)cc1 | -9.86% | 23.1 µM [rising, single point] | –
COCCn1c(SCC(=O)NCC2CCCO2)nc2c(c1=O)SCC2 (stereo not given) | -31% | 2.91 µM [falling, full curve, poor fit] | 23.1 µM [falling, single point]
Cc1cccc(OCC(O)CN2CC3(C)CC2CC(C)(C)C3)c1 (stereo not given) | -30.9% | 32.6 µM [falling, single point] | 32.6 µM [falling, single point]

One compound at a time (already shown). Order of values: cell number change	AC50 [1]	AC50 [2]
Nc1nc(N)c2sc3nc4c(cc3c2n1)CCC4 as listed: 12.3%	29.1 µM [rising, single point]	–
CCOC(=O)c1c(C)n(C)c2ccc(OCC(O)CN3CCN(C)CC3)cc12 (stereo not given) as listed: –	6.51 µM [rising, single point]	–
